# Data taken from patent US20050260158A1, “Human stem cell materials and methods” (priority 2003, published 2005).
# Some entries share one result that the patent states for a list of compounds.
# Assays:
# MDSC cultures [1] = test: Pancreatic islet β-cell-like  differentiation of MDSC cultures, immunostaining for β-cell markers; type: cell-based, human
# Procedure: Cells. MDSCs cultured in 8-well Lab-Tek chamber slides (Nunc, Naperville, Ill.)) were treated for 3-5 days with 1 mg/ml LPS (Sigma) or […] CD40Ab (R&D System, Minneapolis, Minn.)) in the presence of low (5 mM) or high (25 mM) glucose (Sigma). Human pancreatic islets were digested as described in Ricordi, C., et al., Diabetes 38 Suppl 1, 140-142 (1989) and purified on COBE 2991 (Mediatech, Herndon, Va.) using a continuous Ficoll gradient. Immunostaining. Tissue slides (Biochain, Hayward, Calif.) were immunostained after deparaffinization with AutoDewaxer (Phoenix Biotechnologies, Huntsville, Ala.). The secondary antibodies were peroxidase-, FITC-, or Texas Red® dye-conjugated affiniPure anti-mouse, donkey, goat or Guinea pig antibodies (Jackson ImmunoResearch Laboratories, West Grove, Pa.). […] Isotype-matched antibodies served as controls. Human macrophages served as positive controls. Mouse monoclonal antibodies (mAbs) to CD14-PE, CD20, CD45-Cy-Chrome, CD64, and CD83 were from BD PharMingen (San Diego, Calif.), IL-12p70, CD3 from BioSource International (Camarillo, Calif.), Mac-1 and insulin from Sigma, and IgG1 was from R&D Systems. Guinea pig anti-human C-peptide antibody was from Linco Research (St. Charles, Mo.) and goat anti-human polyclonal antibodies to GLUT-2, GCKR, PDX-1, NKX6.1, Sur1, and Kir6.2 were from Santa Cruz Biotechnology (Santa Cruz, Calif.). In double CD14 and CD45 staining, after reacting with the primary and secondary antibodies, the cells were re-stained with CD14-PE or CD45-Cy-Chrome. Immunostaining for the different antigens and insulin immuno-quantification was done as previously described (Zhao, Y., et al., Proc. Natl. Acad. Sci. USA, 100: 2426-2431 (2003). Non-specific esterase staining was performed using a-Naphthyl Acetate Esterase kit (Sigma).
# MDSC cultures [2] = test: Macrophage antigens and dextran phagocytosis in treated MDSC cultures; type: cell-based, human; conditions: LPS or CD40Ab, high glucose
# [3] = 1 μg/ml LPS or 20 μg/ml CD40Ab, high (25 mM) glucose
substance,measurement,setting,value
lipopolysaccharide [LPS],cells displaying insulin staining (of cells with macrophage appearance),MDSC cultures [1]; [3],more than 80%
same,cells exhibiting standard macrophage appearance,MDSC cultures [1]; [3],more than 95%
same,"cells staining for C-peptide, GLUT2, GCKR, PDX-1, NKX6.1 and KATP (Sur1/Kir6.2)","MDSC cultures [1]; LPS or CD40 MAb, high glucose",more than 80%
same,"cells expressing Mac-1, CD14, CD64 and CD45 and exhibiting phagocytosis",MDSC cultures [2],more than 95%
